Reference: article doi:10.1101/2025.06.13.659133
Results are given in words; binding and its absence hold for the method and conditions named. Some entries that bind do so weakly or less than the wild type.

The chains behind the UniProt entries cited, without tags or fusion partners. Residues count along the entry.
UniProt P08476, 311-426: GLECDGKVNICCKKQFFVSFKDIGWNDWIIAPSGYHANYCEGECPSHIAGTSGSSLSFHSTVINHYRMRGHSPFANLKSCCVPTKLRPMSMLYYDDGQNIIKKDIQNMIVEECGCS
UniProt P19883, 30-317: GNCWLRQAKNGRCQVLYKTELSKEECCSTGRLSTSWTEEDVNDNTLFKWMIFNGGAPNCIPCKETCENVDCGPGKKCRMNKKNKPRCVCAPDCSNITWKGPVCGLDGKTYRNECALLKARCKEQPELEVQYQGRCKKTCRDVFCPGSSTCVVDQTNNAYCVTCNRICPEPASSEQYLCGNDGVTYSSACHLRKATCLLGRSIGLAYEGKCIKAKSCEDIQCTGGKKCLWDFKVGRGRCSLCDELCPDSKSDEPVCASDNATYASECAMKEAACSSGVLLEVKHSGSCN

Target: mature human activin A (human) (UniProt P08476)
Test: BLI

binding: binds
Substance: follistatin-288 (from UniProt P19883-2 30-317)
